For 4 molecules, binding results are on record in PMC12847938.

Amino acid sequences for entries named in this document (tags omitted). A change or cut given only in a name is not applied to a line headed by its entry.
UniProt P06733: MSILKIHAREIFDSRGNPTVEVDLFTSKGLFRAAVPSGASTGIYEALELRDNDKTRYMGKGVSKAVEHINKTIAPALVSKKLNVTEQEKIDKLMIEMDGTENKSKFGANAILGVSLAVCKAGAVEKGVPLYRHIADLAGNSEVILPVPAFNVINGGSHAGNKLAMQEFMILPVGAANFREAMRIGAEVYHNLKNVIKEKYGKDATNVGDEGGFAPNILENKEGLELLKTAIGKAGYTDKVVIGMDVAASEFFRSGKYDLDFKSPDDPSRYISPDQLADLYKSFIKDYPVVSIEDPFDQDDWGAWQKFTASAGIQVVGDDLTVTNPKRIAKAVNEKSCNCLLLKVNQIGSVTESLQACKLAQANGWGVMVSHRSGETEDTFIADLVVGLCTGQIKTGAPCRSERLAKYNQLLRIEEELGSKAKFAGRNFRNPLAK
UniProt Q9UNE7: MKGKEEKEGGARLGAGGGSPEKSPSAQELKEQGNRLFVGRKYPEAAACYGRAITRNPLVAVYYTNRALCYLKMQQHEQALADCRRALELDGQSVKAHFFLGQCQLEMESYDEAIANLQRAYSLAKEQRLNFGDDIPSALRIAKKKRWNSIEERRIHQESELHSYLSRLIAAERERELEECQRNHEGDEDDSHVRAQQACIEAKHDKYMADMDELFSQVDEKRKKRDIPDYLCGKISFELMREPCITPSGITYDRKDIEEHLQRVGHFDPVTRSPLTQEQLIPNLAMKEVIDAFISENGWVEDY

Test [1] concerns the target T1, His-RRM2 (UniProt P31350).
T1 sequence: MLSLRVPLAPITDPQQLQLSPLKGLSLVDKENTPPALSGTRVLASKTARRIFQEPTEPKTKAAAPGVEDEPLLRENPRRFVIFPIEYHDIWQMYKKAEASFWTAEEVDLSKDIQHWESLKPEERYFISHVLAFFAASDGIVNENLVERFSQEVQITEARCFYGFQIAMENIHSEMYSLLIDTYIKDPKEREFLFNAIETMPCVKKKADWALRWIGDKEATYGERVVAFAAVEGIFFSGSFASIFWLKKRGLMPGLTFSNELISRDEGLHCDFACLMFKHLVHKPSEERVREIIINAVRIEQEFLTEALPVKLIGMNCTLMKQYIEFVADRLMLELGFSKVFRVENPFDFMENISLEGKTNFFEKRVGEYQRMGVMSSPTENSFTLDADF
Briefly: co-IP; HEK293T cells co-transfected with Myc-STUB1, His-RRM2 and different amounts of flag-ENO1; His and Myc antibodies for precipitation and WB detection.

In test [2] the target is T1, His-RRM2. Briefly: co-IP; HEK293T cells transfected with tagged plasmids; tag antibodies (flag, His, Myc) for precipitation and WB detection.
Test [3] concerns the target T2, Ribonucleotide reductase M2 subunit (RRM2), endogenous in PANC-1 cells (human (endogenous in PANC-1)) (UniProt P31350).
T2 sequence: T1 sequence
Briefly: co-IP; endogenous proteins precipitated from PANC-1 cell lysates with specific antibodies, WB detection, IgG as negative control; also in cells transfected with sh-ENO1.

Test [4] has as its target enolase-1 (ENO1), endogenous in PANC-1 cells (human (endogenous in PANC-1)) (UniProt P06733). The test is described as above.
The target of test [5] is flag-ENO1^D245R (UniProt P06733). The test can be described thus: co-IP; HEK293T cells transfected with tagged plasmids; tag antibodies (flag, His, Myc) for precipitation and WB detection.
Test [6] has as its target flag-ENO1^WT (UniProt P06733). The test is described as above.

These are yes or no findings as the source states them, for the method shown. In cells and extracts the contact can be indirect. Some binding calls cover weakened binding; strength is not graded here. For part of these data: Tags and fused reporters may be left off the sequences shown.

Myc-STUB1 (from UniProt Q9UNE7 1-303): the binding result in test [1] and in test [2] was “binds” throughout.

“STUB1, endogenous in PANC-1 cells (from UniProt Q9UNE7 1-303)”: in test [3], the binding entry is “binds”.

B1: Ribonucleotide reductase M2 subunit (RRM2), endogenous in PANC-1 cells (protein, UniProt P31350 1-389)
chain: T1 sequence
In the case of B1, in test [4], the binding entry was “binds”.

B2: His-RRM2 (protein, UniProt P31350 1-389)
chain: T1 sequence
Consider B2, for which the binding result in test [5] and in test [6] was “binds” each time.
